Three molecules from publication doi:10.1101/2024.05.15.593177 can be followed below.

In assay [1] the target is T1, GAL4 binding domain fused to ATG8H (BD-ATG8H) (Arabidopsis thaliana) (UniProt Q8S925).
T1 sequence: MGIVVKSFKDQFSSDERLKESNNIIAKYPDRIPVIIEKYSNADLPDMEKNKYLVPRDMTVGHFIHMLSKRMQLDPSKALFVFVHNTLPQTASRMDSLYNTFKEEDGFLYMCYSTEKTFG
Nature of the assay: two-hybrid.

Assay [2] addresses T2, GFP-ATG8A (transgenic line ProUBQ10-GFP-ATG8A) (Arabidopsis thaliana) (UniProt Q8LEM4).
T2 sequence: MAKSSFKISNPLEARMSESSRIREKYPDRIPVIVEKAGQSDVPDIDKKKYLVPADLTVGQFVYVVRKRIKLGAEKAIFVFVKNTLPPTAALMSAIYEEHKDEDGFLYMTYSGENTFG
Nature of the assay: co-IP.

Results are given in words; binding and its absence hold for the method and conditions named. For part of these data: Binding seen in cells or lysates may run through a third protein. Some results given as binding are weak or reduced against the parent protein; the word gives no strength. Sequences can lack the tags named with a protein.

B1: GAL4 activation domain fused to ABI5 (AD-ABI5) (protein, UniProt Q9SJN0 1-442)
chain: MVTRETKLTSEREVESSMAQARHNGGGGGENHPFTSLGRQSSIYSLTLDEFQHALCENGKNFGSMNMDEFLVSIWNAEENNNNQQQAAAAAGSHSVPANHNGFNNNNNNGGEGGVGVFSGGSRGNEDANNKRGIANESSLPRQGSLTLPAPLCRKTVDEVWSEIHRGGGSGNGGDSNGRSSSSNGQNNAQNGGETAARQPTFGEMTLEDFLVKAGVVREHPTNPKPNPNPNQNQNPSSVIPAAAQQQLYGVFQGTGDPSFPGQAMGVGDPSGYAKRTGGGGYQQAPPVQAGVCYGGGVGFGAGGQQMGMVGPLSPVSSDGLGHGQVDNIGGQYGVDMGGLRGRKRVVDGPVEKVVERRQRRMIKNRESAARSRARKQAYTVELEAELNQLKEENAQLKHALAELERKRKQQYFESLKSRAQPKLPKSNGRLRTLMRNPSCPL
For the molecule B1, the binding entry in assay [1] is given as “binds”.

B2: cMyc-ABI5 (transgenic line 35S:cMyc-ABI5) (protein, UniProt Q9SJN0 1-442)
chain: B1 chain
For B2, the binding entry in assay [2] is listed as “binds”.

B3: GAL4 activation domain fused to ABI3 (AD-ABI3) (protein, UniProt Q01593 1-720)
chain: MKSLHVAANAGDLAEDCGILGGDADDTVLMDGIDEVGREIWLDDHGGDNNHVHGHQDDDLIVHHDPSIFYGDLPTLPDFPCMSSSSSSSTSPAPVNAIVSSASSSSAASSSTSSAASWAILRSDGEDPTPNQNQYASGNCDDSSGALQSTASMEIPLDSSQGFGCGEGGGDCIDMMETFGYMDLLDSNEFFDTSAIFSQDDDTQNPNLMDQTLERQEDQVVVPMMENNSGGDMQMMNSSLEQDDDLAAVFLEWLKNNKETVSAEDLRKVKIKKATIESAARRLGGGKEAMKQLLKLILEWVQTNHLQRRRTTTTTTNLSYQQSFQQDPFQNPNPNNNNLIPPSDQTCFSPSTWVPPPPQQQAFVSDPGFGYMPAPNYPPQPEFLPLLESPPSWPPPPQSGPMPHQQFPMPPTSQYNQFGDPTGFNGYNMNPYQYPYVPAGQMRDQRLLRLCSSATKEARKKRMARQRRFLSHHHRHNNNNNNNNNNQQNQTQIGETCAAVAPQLNPVATTATGGTWMYWPNVPAVPPQLPPVMETQLPTMDRAGSASAMPRQQVVPDRRQGWKPEKNLRFLLQKVLKQSDVGNLGRIVLPKKEAETHLPELEARDGISLAMEDIGTSRVWNMRYRFWPNNKSRMYLLENTGDFVKTNGLQEGDFIVIYSDVKCGKYLIRGVKVRQPSGQKPEAPPSSAATKRQNKSQRNINNNSPSANVVVASPTSQTVK
As for B3, in assay [1], the binding result is “binds”.
